Measurements: the supplement of paper PMC4749390
Counter-ions that a name gives are not always drawn. The list shows a part of the results. Single values are uncertain here, since repeats match poorly.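 JEG3 cells stably carry tetracycline-induced wild-type human LRH-1, a heavily sumoylated nuclear receptor. APOC3 and MUC1 are SUMO-sensitive transcripts, raised by SUMO-less LRH-1 or UBC9 knockdown, measured by RT-qPCR against TBP and DMSO controls. A robust Z-score above +2 or below -2 marked a primary hit before toxicity and TBP filtering.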

The molecules below were run on JEG3 expressing hLRH-1 (assay: APOC3 transcript change (ddCt vs TBP and DMSO), Z-score over library; higher = higher APOC3 expression). Details: 10 µM; time (hr): 24.

| Structure (SMILES) | APOC3 transcript change (Z-score) |
| --- | --- |
| Fc1ccc([C@@H]2CCNC[C@H]2COc2ccc3c(c2)OCO3)cc1 [paroxetine hydrochloride] | -0.622 |
| O=C(CCCN1CCC(O)(c2ccc(Cl)cc2)CC1)c1ccc(F)cc1 [Haloperidol] | -0.399 |
| OCCN1C[C@H](O)[C@@H](O)[C@H](O)[C@H]1CO [miglitol] | 0.279 |
| CC(=O)OCC[N+](C)(C)C [acetylcholine] | -0.15 |
| O=C(O)c1ccccc1C(=O)Nc1ccc(S(=O)(=O)Nc2nccs2)cc1 [phthalylsulfathiazole] | 0.385 |
| COc1ccc(-n2nc(CCC(=O)N(C)O)cc2-c2ccc(Cl)cc2)cc1 [tepoxalin] | 1.44 |
| CC1=C(/C=C/C(C)=C/C=C/C(C)=C\C(=O)O)C(C)(C)CCC1 [isotretinon] | 3.65 |
| COc1c(C)c2c(c(O)c1C/C=C(\C)CCC(=O)OCCN1CCOCC1)C(=O)OC2 [mycophenolate mofetil] | 1.44 |
| CC(=O)OCC(COC(C)=O)OC(C)=O [triacetin] | 0.436 |
| CO[C@@]1(NC(=O)C(C(=O)O)c2ccc(O)cc2)C(=O)N2C(C(=O)O)=C(CSc3nnnn3C)CO[C@@H]21 (stereo partly drawn) [moxalactam disodium] | -0.567 |
| CC/C=C\C/C=C\C/C=C\C/C=C\C/C=C\CCCC(=O)OCC [omega-3-acid esters (epa shown)] | -0.465 |
| OCc1ccccc1O [salicyl alcohol] | 1.29 |
| CSc1ccc2c(c1)C(N1CCN(C)CC1)Cc1ccccc1S2 (stereo not drawn) [Methiothepin mesylate] | -0.111 |
| CC(=O)Oc1cccc(C)c1 [meta-cresyl acetate] | -0.491 |
| CC1=NN(c2ccccc2)C(=O)C1 [3-methyl-1-phenyl-2-pyrazolin-5-one (mci-186)] | 0.173 |
| Cc1nc(O)c(C#N)cc1-c1ccncc1 [milrinone] | 0.176 |
| O=C(O)c1cc(O)c(O)c(O)c1 [gallic acid] | -1.17 |
| CCN[C@@H]1C[C@H](N)[C@@H](O[C@H]2OC(CN)=CC[C@H]2N)[C@H](O)[C@H]1O[C@H]1OC[C@](C)(O)[C@H](NC)[C@H]1O [netilmicin sulfate] | -0.359 |
| C[C@@H]1CC2C3CCC4=CC(=O)C=C[C@]4(C)[C@@]3(F)[C@@H](O)C[C@]2(C)[C@@]1(O)C(=O)COP(=O)(O)O (stereo partly drawn) [dexamethasone sodium phosphate] | 0.227 |
| FC(F)(F)COCC(F)(F)F [flurothyl] | -2.13 |
| Oc1c(Cl)cc(Cl)c(Cl)c1Cc1c(O)c(Cl)cc(Cl)c1Cl [hexachlorophene] | -1.11 |
| Nc1nc(N)c2nc(CNc3ccc(C(=O)NC(CCC(=O)O)C(=O)O)cc3)cnc2n1 (stereo not drawn) [Aminopterin] | -0.825 |
| O=C(O)Cc1ccc(-c2ccccc2)cc1 [felbinac] | 0.00124 |
| CCN1CCC(CNC(=O)c2cc(S(N)(=O)=O)ccc2OC)C1 (stereo not drawn) [sulpiride] | 0.283 |
| NS(=O)(=O)c1cc(C2(O)NC(=O)c3ccccc32)ccc1Cl (stereo not drawn) [chlorthalidone] | -0.52 |
| CO/N=C(\C(=O)N[C@@H]1C(=O)N2C(C(=O)OC(C)OC(C)=O)=C(COC(N)=O)CS[C@H]12)c1ccco1 (stereo partly drawn) [cefuroxime axetil] | -0.0532 |

Entries listed so far that contain fluorine:

| Structure (SMILES) | APOC3 transcript change (Z-score) |
| --- | --- |
| Fc1ccc([C@@H]2CCNC[C@H]2COc2ccc3c(c2)OCO3)cc1 [paroxetine hydrochloride] | -0.622 |
| O=C(CCCN1CCC(O)(c2ccc(Cl)cc2)CC1)c1ccc(F)cc1 [Haloperidol] | -0.399 |
| C[C@@H]1CC2C3CCC4=CC(=O)C=C[C@]4(C)[C@@]3(F)[C@@H](O)C[C@]2(C)[C@@]1(O)C(=O)COP(=O)(O)O (stereo partly drawn) [dexamethasone sodium phosphate] | 0.227 |
| FC(F)(F)COCC(F)(F)F [flurothyl] | -2.13 |

(further entries)

| Structure (SMILES) | APOC3 transcript change (Z-score) |
| --- | --- |
| COc1c(N2CCNC(C)C2)c(F)cc2c(=O)c(C(=O)O)cn(C3CC3)c12 (stereo not drawn) [gatifloxacin] | 0.356 |
| COc1ccc(CCN(C)CCCC(C#N)(c2ccc(OC)c(OC)c2)C(C)C)cc1OC (racemic) [(±)-Verapamil hydrochloride] | -0.2 |
| Cn1c(=O)c2c(ncn2C)n(C)c1=O [Caffeine] | -1 |
| COc1ccc(Cl)cc1C(=O)NCCc1ccc(S(=O)(=O)NC(=O)NC2CCCCC2)cc1 [Glibenclamide] | -0.591 |
| COc1cc2c3cc1Oc1cc(ccc1O)C[C@@H]1c4c(cc(OC)c(O)c4Oc4ccc(cc4)C[C@@H]3N(C)CC2)CC[N+]1(C)C [tubocurarine chloride] | 0.934 |
| CC1(C)[C@@H](OC(=O)CCC(=O)O)CC[C@]2(C)[C@H]3C(=O)C=C4[C@@H]5C[C@@](C)(C(=O)O)CC[C@]5(C)CC[C@@]4(C)[C@]3(C)CC[C@@H]12 [carbenoxolone sodium] | -1.04 |
| CC(C)CCCC(C)NC(C)C (stereo not drawn) [iproheptine] | 0.55 |
| CC(=O)OCC(=O)[C@H]1CC[C@H]2[C@@H]3CCC4=CC(=O)CC[C@]4(C)[C@H]3CC[C@]12C [desoxycorticosterone acetate] | 0.298 |
| O=C(O)C1CSCN1 (stereo not drawn) [timonacic] | 0.416 |
| CCN(CC)CCOc1ccc(/C(=C(\Cl)c2ccccc2)c2ccccc2)cc1 [clomiphene citrate] | -0.321 |
| CCN(CC)CCOCCOC(=O)C(CC)(CC)c1ccccc1 [oxelaidin citrate] | -1.05 |
| CC(=O)OCC(=O)[C@@]1(OC(C)=O)[C@@H](C)C[C@H]2[C@@H]3C[C@H](F)C4=CC(=O)C=C[C@]4(C)[C@@]3(F)[C@@H](O)C[C@@]21C [diflorasone diacetate] | 0.48 |
| CC[C@@H](CO)NCCN[C@@H](CC)CO [ethambutol hydrochloride] | 0.515 |
| C[C@]1(Cn2ccnn2)[C@H](C(=O)O)N2C(=O)C[C@H]2S1(=O)=O [tazobactam] | 0.524 |
| CCCCc1oc2ccccc2c1C(=O)c1cc(I)c(OCCN(CC)CC)c(I)c1 [Amiodarone hydrochloride] | 0.866 |
| Cc1c(O)c(=O)ccn1C [deferiprone] | -0.63 |
| CC(C(=O)O)c1ccc2c(c1)[nH]c1ccc(Cl)cc12 (stereo not drawn) [carprofen] | -0.187 |
| C=CC1=C(C)c2cc3nc(cc4[nH]c(cc5[nH]c(cc1n2)c(C)c5C=C)c(C)c4CCC(=O)O)C(CCC(=O)O)=C3C [protoporphyrin ix] | -0.146 |
| N=C(N)c1ccc(N=NNc2ccc(C(=N)N)cc2)cc1 [diminazene aceturate] | -0.217 |
| Nc1[nH]cnc2ncnc1-2 [adenine] | 0.341 |
| OC[C@@H](O)[C@H](O)[C@@H](O)[C@H](O)CO [sorbitol] | -0.344 |
| CC[n+]1c(-c2ccccc2)c2cc(N)ccc2c2ccc(N)cc21 [homidium bromide] | -0.63 |
| NC(=O)NS(=O)(=O)c1ccc(N)cc1 [sulfacarbamide] | 1.75 |
| O=C(O)c1ccc(S(=O)(=O)N(Cl)Cl)cc1 [halazone] | -0.554 |
| O=C(O)c1cc(O)nc(O)n1 [orotic acid] | -0.962 |
| CC12CCC(=O)C=C1CCC1C2[C@@H](O)CC2(C)C1CC[C@]2(O)C(=O)COP(=O)(O)O (stereo partly drawn) [hydrocortisone sodium phosphate] | -2.38 |

Quoted from the listing.
`O=C(CCCN1CCC(O)(c2ccc(Cl)cc2)CC1)c1ccc(F)cc1` [Haloperidol] | APOC3 transcript change (Z-score): -0.399
`Nc1[nH]cnc2ncnc1-2` [adenine] | APOC3 transcript change (Z-score): 0.341

(listing goes on)

| Structure (SMILES) | APOC3 transcript change (Z-score) |
| --- | --- |
| Oc1ccc(Cl)c2c1CCC2 [chlorindanol] | 0.0175 |
| OC[C@@H](O)C(O[C@@H]1O[C@H](CO)[C@H](O)[C@H](O)[C@H]1O)[C@H](O)[C@@H](O)CO (stereo partly drawn) [d-lactitol monohydrate] | 0.0936 |
| Cc1cc(N)c2ccccc2[n+]1CCCCCCCCCC[n+]1c(C)cc(N)c2ccccc21 [dequalinium chloride] | -0.275 |
| CN1CCCCC1CCN1c2ccccc2Sc2ccc(S(C)=O)cc21 (stereo not drawn) [mesoridazine besylate] | -0.772 |
| CCOc1ccc2nc3cc(N)ccc3c(N)c2c1 [ethacridine lactate] | 0.85 |
| Nc1nc(NC2CC2)c2ncn([C@H]3C=C[C@@H](CO)C3)c2n1 [abacavir sulfate] | 0.347 |
| CC(C)c1nc(CN(C)C(=O)N[C@H](C(=O)N[C@@H](Cc2ccccc2)C[C@H](O)[C@H](Cc2ccccc2)NC(=O)OCc2cncs2)C(C)C)cs1 [ritonavir] | 0.525 |
| CCNC1CN(CCCOC)S(=O)(=O)c2sc(S(N)(=O)=O)cc21 (stereo not drawn) [brinzolamide] | 0.305 |
| CCCCCCCCCCCCCCCCOP(=O)([O-])OCC[N+](C)(C)C [miltefosine] | -0.213 |
| O=C(O)CCC(=O)OC[C@@H](NC(=O)C(Cl)Cl)[C@H](O)c1ccc([N+](=O)[O-])cc1 [chloramphenicol hemisuccinate] | 0.771 |
| C[C@]12CC[C@@H]3c4ccc(OS(=O)(=O)O)cc4CC[C@H]3[C@@H]1CCC2=O [estropipate] | 0.288 |
| O=C(O)CCc1nc(-c2ccccc2)c(-c2ccccc2)o1 [oxaprozin] | -0.197 |
| CCOC(=O)c1ccc(N)cc1 [benzocaine] | 0.117 |
| Nc1ccc(S(=O)(=O)Nc2ccc(Cl)nn2)cc1 [sulfachlorpyridazine] | -0.162 |
| CC(C)(C)CC(C)(C)c1ccc(O)c(Cc2ccc(Cl)cc2Cl)c1 [clofoctol] | 0.306 |
| CCC1=C(C)CN(C(=O)NCCc2ccc(S(=O)(=O)NC(=O)N[C@H]3CC[C@H](C)CC3)cc2)C1=O [glimepiride] | 0.585 |
| Nc1ncnc2c1ncn2[C@@H]1O[C@H](CO)[C@@H](O)[C@@H]1O [vidarabine] | 0.608 |
| CCOc1ccc(NC(C)=O)cc1 [phenacetin] | -0.22 |
| COc1cc(NC(C)CCCN)c2ncccc2c1 (stereo not drawn) [primaquine diphosphate] | 0.93 |
| Cc1c(Cl)cccc1Nc1ccccc1C(=O)O [tolfenamic acid] | -0.426 |
| COc1ccc2cc([C@H](C)CO)ccc2c1 [naproxol] | -0.754 |
| COc1ccc2c3c1O[C@H]1C[C@@H](O)C=C[C@@]31CCN(C)C2 [galanthamine hydrobromide] | 0.0474 |
| O=C(O)COC(=O)Cc1ccccc1Nc1c(Cl)cccc1Cl [aceclofenac] | -0.0378 |
| Cc1cc(=O)oc2cc(O)ccc12 [hymechrome] | 0.0948 |
| CO/C(O)=C1\C(C)=NC(C)=C(C(=O)OC(C)C)C1c1cccc2nonc12 (stereo not drawn) [isradipine] | 0.962 |
| CC(C)(C(=O)c1cccnc1)c1cccnc1 [metyrapone] | 0.126 |
